No constants are given. Whether binding was seen depends on the method and setting. Some binding calls cover weakened binding; strength is not graded here.
T1: TIN2 (StrepII-TINF2, long isoform) (human) (UniProt Q9BSI4)
T1 sequence: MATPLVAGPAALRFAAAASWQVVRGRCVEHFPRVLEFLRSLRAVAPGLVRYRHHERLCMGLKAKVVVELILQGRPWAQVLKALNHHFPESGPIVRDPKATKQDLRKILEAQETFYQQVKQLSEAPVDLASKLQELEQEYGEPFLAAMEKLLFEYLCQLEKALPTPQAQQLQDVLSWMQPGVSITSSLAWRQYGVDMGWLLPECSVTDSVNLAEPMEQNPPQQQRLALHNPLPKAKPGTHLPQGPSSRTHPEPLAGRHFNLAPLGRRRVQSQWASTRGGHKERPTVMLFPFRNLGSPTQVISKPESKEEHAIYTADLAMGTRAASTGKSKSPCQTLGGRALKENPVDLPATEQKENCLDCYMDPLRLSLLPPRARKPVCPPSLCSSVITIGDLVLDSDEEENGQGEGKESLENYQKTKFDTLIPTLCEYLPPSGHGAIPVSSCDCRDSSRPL

B1: POT1 (protein, UniProt Q9NUX5 1-634)
chain: MSLVPATNYIYTPLNQLKGGTIVNVYGVVKFFKPPYLSKGTDYCSVVTIVDQTNVKLTCLLFSGNYEALPIIYKNGDIVRFHRLKIQVYKKETQGITSSGFASLTFEGTLGAPIIPRTSSKYFNFTTEDHKMVEALRVWASTHMSPSWTLLKLCDVQPMQYFDLTCQLLGKAEVDGASFLLKVWDGTRTPFPSWRVLIQDLVLEGDLSHIHRLQNLTIDILVYDNHVHVARSLKVGSFLRIYSLHTKLQSMNSENQTMLSLEFHLHGGTSYGRGIRVLPESNSDVDQLKKDLESANLTANQHSDVICQSEPDDSFPSSGSVSLYEVERCQQLSATILTDHQYLERTPLCAILKQKAPQQYRIRAKLRSYKPRRLFQSVKLHCPKCHLLQEVPHEGDLDIIFQDGATKTPDVKLQNTSLYDSKIWTTKNQKGRKVAVHFVKNNGILPLSNECLLLIEGGTLSEICKLSNKFNSVIPVRSGHEDLELLDLSAPFLIQGTIHHYGCKQCSSLRSIQNLNSLVDKTSWIPSSVAEALGIVPLQYVFVMTFTLDDGTGVLEAYLMDSDKFFQIPASEVLMDDDLQKSVDMIMDMFCPPGIKIDAYPWLECFIKSYNVTNGTDNQICYQIFDTTVAEDVI
B2: TRF1 with the Myb domain deleted, TERF1(D375-431) (protein, UniProt P54274)
chain: MAEDVSSAAPSPRGCADGRDADPTEEQMAETERNDEEQFECQELLECQVQVGAPEEEEEEEEDAGLVAEAEAVAAGWMLDFLCLSLCRAFRDGRSEDFRRTRNSAEAIIHGLSSLTACQLRTIYICQFLTRIAAGKTLDAQFENDERITPLESALMIWGSIEKEHDKLHEEIQNLIKIQAIAVCMENGNFKEAEEVFERIFGDPNSHMPFKSKLLMIISQKDTFHSFFQHFSYNHMMEKIKSYVNYVLSEKSSTFLMKAAAKVVESKRTRTITSQDKPSGNDVEMETEANLDTRKSVSDKQSAVTESSEGTVSLLRSHKNLFLSKLQHGTQQQDLNKKERRVGTPQSTKKKKESRRATESRIPVSKSQPVTPEKLISSDSED
B3: RAP1 (protein, UniProt Q9NYB0 1-399)
chain: MAEAMDLGKDPNGPTHSSTLFVRDDGSSMSFYVRPSPAKRRLSTLILHGGGTVCRVQEPGAVLLAQPGEALAEASGDFISTQYILDCVERNERLELEAYRLGPASAADTGSEAKPGALAEGAAEPEPQRHAGRIAFTDADDVAILTYVKENARSPSSVTGNALWKAMEKSSLTQHSWQSLKDRYLKHLRGQEHKYLLGDAPVSPSSQKLKRKAEEDPEAADSGEPQNKRTPDLPEEEYVKEEIQENEEAVKKMLVEATREFEEVVVDESPPDFEIHITMCDDDPPTPEEDSETQPDEEEEEEEEKVSQPEVGAAIKIIRQLMEKFNLDLSTVTQAFLKNSGELEATSAFLASGQRADGYPIWSRQDDIDLQKDDEDTREALVKKFGAQNVARRIEFRKK

target: T1, TIN2 (StrepII-TINF2, long isoform) (human); experiment: co-purification (Strep-Tactin affinity, then SEC); subunits co-expressed in Hi5 insect cells; lysate (300 mM NaCl) on Streptactin XT resin via the Strep tag on TIN2, biotin elution, Superose 6 in 50 mM HEPES-KOH pH 7.6, 300 mM NaCl, 10% glycerol, 1 mM DTT; SDS-PAGE and immunoblot of the preparations

Row | binding | Binder
1 | binds | B1
2 | binds | B2
3 | binds | B3

— PMC13483900
